The text below walks through data of PMC4699217.

Protein sequences, listed by entry. Tags and fused reporters are not part of them. Lines headed by an entry give the natural chain unless they say otherwise; changes in a name come on top.
UniProt Q7Z6G8: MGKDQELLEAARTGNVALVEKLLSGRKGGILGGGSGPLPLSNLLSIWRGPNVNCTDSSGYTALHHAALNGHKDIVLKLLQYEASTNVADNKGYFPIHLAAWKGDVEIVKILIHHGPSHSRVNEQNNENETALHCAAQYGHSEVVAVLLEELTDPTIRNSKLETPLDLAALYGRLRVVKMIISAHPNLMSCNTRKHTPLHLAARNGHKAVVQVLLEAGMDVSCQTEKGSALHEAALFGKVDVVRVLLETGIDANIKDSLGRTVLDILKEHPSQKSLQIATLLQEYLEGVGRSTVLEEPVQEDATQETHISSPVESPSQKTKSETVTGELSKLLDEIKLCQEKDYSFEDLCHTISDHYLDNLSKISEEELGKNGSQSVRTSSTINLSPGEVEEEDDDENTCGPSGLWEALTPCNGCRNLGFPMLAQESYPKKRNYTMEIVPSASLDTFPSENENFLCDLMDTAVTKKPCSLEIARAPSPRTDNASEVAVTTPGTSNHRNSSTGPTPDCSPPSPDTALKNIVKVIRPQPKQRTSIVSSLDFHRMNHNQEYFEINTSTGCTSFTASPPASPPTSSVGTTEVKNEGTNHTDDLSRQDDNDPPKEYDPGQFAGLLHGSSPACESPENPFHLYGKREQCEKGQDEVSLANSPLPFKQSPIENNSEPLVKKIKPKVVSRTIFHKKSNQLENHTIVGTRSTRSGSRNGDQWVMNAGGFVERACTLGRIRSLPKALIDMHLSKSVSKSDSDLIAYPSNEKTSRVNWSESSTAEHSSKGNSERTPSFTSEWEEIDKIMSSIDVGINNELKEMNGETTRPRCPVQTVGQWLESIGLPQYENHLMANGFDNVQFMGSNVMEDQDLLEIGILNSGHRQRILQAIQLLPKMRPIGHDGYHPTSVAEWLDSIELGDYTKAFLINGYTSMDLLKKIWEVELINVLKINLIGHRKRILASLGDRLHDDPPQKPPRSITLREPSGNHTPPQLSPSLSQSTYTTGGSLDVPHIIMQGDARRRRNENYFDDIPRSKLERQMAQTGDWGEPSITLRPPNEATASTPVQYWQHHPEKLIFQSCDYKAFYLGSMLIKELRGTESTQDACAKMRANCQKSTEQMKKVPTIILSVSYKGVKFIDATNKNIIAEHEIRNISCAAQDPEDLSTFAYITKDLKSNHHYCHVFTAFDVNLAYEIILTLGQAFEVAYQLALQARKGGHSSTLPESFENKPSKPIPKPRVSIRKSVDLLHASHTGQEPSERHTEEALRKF
UniProt O00522: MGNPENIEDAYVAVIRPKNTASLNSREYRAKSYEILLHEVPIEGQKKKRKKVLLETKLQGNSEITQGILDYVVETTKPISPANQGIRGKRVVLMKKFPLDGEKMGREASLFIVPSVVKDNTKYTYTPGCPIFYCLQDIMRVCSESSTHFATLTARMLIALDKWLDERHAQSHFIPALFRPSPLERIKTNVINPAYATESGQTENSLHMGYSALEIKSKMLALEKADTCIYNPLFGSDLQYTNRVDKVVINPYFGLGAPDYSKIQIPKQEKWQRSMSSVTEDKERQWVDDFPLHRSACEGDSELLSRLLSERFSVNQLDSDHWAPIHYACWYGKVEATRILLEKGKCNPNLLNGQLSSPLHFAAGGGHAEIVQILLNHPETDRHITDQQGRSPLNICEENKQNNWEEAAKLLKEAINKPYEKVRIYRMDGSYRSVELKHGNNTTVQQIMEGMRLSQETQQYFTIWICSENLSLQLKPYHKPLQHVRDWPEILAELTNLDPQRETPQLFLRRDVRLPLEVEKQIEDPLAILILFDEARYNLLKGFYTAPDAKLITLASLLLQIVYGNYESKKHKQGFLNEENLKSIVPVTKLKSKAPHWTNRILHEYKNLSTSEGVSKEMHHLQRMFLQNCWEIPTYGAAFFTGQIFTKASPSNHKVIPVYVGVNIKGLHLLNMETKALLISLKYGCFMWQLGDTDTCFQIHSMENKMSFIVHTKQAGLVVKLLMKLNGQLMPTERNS

In the assay the target is Protein A-tagged ANKS1B (human) (UniProt Q7Z6G8). As to the kind of experiment: LUMIER (co-precipitation with luciferase read-out); HEK293 cells transiently transfected; lysed two days after transfection; Protein A-tagged protein purified with immunoglobulin-coated magnetic beads; luciferase-tagged protein detected by luminescence; LUMIER intensity ratio of 3 or above counts as positive.

These are yes or no findings as the source states them, for the method shown. Binding seen in cells or lysates may run through a third protein. Binding calls can cover weak binding; strength is not graded here.

As to “KRIT1 fused to Renilla luciferase (from UniProt O00522 1-736)”, the binding entry is listed as “binds”.
